Test results as given in paper PMC9748336.
These are yes or no findings as the source states them, for the method shown. Binding seen in cells or lysates may run through a third protein. Some entries that bind do so weakly or less than the wild type. For some of these results: Where a sequence is shown, tags or fusion partners need not be part of it.

Amino acid sequences for entries named in this document (tags omitted). A change or cut given only in a name is not applied to a line headed by its entry. Chains listed by the source or under a name are the forms on record and can include a tag or linker.
UniProt Q15172: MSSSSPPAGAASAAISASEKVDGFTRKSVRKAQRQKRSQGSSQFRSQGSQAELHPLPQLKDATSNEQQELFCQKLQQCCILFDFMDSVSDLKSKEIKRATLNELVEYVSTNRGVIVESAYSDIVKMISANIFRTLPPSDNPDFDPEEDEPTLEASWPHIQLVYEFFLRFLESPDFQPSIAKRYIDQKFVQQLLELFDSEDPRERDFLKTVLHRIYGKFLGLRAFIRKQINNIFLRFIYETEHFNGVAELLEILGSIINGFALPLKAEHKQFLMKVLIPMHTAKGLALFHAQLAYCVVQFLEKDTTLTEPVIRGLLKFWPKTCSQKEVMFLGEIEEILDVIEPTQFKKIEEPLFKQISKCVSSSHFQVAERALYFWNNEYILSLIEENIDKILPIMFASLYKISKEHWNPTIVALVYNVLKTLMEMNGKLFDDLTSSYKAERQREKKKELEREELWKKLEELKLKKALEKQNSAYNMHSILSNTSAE
UniProt Q16537: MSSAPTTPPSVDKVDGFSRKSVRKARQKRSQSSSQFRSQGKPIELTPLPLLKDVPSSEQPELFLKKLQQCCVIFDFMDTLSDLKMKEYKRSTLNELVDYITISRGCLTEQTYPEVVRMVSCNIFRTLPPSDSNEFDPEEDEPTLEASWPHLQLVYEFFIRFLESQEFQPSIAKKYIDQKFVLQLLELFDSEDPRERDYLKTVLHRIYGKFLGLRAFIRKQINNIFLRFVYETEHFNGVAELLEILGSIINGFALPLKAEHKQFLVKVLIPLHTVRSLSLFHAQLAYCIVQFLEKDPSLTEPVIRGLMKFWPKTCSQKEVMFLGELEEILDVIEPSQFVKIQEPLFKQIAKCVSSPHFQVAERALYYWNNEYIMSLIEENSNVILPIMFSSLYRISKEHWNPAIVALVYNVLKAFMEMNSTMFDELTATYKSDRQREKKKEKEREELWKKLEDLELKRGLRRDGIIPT
UniProt Q15173: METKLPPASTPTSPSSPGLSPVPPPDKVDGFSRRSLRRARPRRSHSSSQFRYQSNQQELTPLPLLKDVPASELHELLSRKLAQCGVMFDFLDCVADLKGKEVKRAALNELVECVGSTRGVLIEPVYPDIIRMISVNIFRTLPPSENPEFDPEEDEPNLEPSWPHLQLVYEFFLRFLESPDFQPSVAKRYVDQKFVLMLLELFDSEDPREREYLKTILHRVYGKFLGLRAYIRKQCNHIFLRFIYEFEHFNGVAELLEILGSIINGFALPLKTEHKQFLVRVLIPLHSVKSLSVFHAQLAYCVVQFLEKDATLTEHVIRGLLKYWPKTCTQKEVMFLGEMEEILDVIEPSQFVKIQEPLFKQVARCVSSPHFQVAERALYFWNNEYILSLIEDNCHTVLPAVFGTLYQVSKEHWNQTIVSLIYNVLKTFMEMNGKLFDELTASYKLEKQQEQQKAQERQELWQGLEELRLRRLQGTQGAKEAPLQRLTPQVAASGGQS
UniProt P67775: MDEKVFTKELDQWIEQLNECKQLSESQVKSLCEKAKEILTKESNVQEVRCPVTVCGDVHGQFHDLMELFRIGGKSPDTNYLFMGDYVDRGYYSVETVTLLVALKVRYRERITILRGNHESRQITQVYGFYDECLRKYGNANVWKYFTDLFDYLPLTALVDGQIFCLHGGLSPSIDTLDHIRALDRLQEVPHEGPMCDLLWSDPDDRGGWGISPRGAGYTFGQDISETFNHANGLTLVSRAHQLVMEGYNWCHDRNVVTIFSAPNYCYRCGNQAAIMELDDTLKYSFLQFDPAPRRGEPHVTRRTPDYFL
HA-tagged PP2A catalytic Cα subunit p.Cys196Arg variant (P67775, form named): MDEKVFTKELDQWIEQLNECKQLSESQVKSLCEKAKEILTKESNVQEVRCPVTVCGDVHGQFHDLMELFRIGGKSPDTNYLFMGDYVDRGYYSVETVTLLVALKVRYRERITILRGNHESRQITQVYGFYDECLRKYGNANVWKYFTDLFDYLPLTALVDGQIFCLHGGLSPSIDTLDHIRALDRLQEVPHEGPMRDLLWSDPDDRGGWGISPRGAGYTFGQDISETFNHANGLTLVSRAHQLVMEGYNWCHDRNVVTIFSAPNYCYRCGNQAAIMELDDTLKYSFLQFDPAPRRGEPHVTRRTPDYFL

Assays:
Assay in all cases: co-IP; GFP pulldown: lysates of HEK293T cells co-expressing GFP-tagged B-type subunit and HA-Cα incubated 1 h at 4°C with GFP-trap-A beads in NENT100 buffer with 1 mg/ml BSA; washes with 300 and 150 mM NaCl; HA-Cα detected by anti-HA immunoblot, quantified against the anti-GFP signal, WT set at 100%; no phosphatase inhibitors for GFP-STRN3
[1] = target: T1, GFP-tagged PP2A regulatory B”’/STRN3 subunit (UniProt Q13033)
T1 sequence: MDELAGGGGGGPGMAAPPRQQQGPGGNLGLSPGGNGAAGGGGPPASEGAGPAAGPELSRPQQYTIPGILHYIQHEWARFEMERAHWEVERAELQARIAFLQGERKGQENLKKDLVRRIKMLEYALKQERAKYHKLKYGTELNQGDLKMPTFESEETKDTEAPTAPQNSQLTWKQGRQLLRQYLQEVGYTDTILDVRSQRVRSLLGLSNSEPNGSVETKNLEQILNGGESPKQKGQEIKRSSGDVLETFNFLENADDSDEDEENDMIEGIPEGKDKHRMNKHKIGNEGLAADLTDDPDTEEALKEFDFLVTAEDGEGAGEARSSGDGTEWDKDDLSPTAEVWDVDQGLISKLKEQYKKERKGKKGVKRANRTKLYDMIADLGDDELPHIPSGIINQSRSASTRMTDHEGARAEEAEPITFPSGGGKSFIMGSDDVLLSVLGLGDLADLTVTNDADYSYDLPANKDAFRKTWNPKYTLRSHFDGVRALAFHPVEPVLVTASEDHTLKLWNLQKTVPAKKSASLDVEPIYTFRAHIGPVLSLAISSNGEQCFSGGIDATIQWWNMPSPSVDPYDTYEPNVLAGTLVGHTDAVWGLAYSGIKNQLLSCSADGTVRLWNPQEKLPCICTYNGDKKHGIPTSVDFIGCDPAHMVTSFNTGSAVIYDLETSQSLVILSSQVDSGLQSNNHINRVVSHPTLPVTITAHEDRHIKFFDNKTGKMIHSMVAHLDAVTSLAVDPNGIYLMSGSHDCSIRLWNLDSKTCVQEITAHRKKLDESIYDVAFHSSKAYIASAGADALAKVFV

[2] = target: T2, GFP-tagged PP2A regulatory B55α subunit (UniProt P63151)
T2 sequence: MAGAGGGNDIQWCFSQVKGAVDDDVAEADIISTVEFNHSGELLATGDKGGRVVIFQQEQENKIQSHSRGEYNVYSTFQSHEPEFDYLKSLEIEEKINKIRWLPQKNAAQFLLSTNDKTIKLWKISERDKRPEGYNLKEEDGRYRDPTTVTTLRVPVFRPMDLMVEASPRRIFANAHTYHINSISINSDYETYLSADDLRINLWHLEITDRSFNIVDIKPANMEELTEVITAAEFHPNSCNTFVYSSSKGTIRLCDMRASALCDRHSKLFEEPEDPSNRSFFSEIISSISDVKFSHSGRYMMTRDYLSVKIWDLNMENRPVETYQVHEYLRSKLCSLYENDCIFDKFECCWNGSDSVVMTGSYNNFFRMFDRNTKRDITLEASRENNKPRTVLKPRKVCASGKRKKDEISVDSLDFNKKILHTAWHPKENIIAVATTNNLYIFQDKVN

[3] = target: T3, GFP-tagged PP2A regulatory B”/PR72 subunit (UniProt Q06190)
T3 sequence: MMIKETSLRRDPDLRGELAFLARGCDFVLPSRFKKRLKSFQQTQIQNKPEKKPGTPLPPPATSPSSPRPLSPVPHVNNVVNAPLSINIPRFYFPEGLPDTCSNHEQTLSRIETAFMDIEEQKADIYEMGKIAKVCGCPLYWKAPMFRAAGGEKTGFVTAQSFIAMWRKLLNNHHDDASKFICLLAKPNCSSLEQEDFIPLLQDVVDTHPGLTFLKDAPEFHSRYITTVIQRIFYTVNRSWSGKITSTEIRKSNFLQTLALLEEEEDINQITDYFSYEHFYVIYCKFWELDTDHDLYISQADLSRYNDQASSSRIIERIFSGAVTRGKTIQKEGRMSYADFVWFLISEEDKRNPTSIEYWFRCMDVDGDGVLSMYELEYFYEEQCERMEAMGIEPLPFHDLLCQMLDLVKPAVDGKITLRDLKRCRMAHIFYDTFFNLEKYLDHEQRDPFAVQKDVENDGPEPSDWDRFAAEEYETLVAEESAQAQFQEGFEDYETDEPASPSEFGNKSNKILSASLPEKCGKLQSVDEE

[4] = target: GFP-tagged PP2A regulatory B56α subunit (UniProt Q15172)
[5] = target: GFP-tagged PP2A regulatory B56ε subunit (UniProt Q16537)
[6] = target: GFP-tagged PP2A regulatory B56β subunit (UniProt Q15173)

Measured: binding

HA-tagged PP2A catalytic Cα subunit p.Cys196Arg variant (from UniProt P67775 1-309) (enzyme)
binds: [1]

HA-tagged wild-type PP2A catalytic Cα subunit (from UniProt P67775 1-309) (enzyme)
binds: all assays above
